Experimental findings from article doi:10.1101/2022.08.31.505651 are described below.

Experiment [1] has as its target T1, NEK1 (endogenous) (human (endogenous in ARPE-19, HeLa, HEK293, U2OS)) (UniProt Q96PY6).
T1 sequence: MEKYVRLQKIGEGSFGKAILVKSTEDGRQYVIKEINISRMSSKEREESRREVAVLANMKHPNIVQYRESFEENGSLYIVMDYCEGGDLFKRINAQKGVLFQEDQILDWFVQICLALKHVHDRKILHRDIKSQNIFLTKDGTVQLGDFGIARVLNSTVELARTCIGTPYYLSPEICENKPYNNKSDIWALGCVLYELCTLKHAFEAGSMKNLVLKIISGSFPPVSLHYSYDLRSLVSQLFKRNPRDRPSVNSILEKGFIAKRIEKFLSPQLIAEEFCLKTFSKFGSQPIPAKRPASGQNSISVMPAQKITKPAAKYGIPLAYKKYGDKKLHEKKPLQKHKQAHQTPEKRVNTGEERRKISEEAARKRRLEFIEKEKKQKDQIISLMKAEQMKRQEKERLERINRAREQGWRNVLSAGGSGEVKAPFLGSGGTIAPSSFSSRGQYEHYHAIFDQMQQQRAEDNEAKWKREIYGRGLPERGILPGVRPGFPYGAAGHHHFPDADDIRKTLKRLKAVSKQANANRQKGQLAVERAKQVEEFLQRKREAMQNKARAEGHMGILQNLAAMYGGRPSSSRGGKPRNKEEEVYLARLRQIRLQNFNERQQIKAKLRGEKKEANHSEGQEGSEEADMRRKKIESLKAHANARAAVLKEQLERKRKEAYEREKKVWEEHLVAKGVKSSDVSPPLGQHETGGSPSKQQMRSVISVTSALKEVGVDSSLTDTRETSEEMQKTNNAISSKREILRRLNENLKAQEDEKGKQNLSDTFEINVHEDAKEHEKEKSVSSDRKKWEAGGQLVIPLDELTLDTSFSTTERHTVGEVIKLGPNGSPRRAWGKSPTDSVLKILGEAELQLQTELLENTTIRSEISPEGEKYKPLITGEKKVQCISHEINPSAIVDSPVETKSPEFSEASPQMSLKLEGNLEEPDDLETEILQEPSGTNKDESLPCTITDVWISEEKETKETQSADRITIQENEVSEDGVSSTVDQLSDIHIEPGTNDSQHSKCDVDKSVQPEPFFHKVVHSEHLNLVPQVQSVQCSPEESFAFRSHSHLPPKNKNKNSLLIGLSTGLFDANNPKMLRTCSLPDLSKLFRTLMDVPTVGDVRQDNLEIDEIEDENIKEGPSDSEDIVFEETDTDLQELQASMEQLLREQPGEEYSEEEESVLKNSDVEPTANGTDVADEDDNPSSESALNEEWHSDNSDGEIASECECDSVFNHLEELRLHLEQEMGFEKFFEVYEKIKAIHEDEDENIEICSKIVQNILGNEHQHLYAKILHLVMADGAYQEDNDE
Briefly: co-IP.

The target of experiment [2] is T1, NEK1 (endogenous) (human (endogenous in ARPE-19, HeLa, HEK293, U2OS)). Briefly: co-IP. The source holds these as a separate data set.
Experiment [3] shares this target. Briefly: SEC.
Experiment [4] has as its target T2, NEK1 D1277A re-expressed in NEK1-KO ARPE-19 cells (human) (UniProt Q96PY6).
T2 sequence: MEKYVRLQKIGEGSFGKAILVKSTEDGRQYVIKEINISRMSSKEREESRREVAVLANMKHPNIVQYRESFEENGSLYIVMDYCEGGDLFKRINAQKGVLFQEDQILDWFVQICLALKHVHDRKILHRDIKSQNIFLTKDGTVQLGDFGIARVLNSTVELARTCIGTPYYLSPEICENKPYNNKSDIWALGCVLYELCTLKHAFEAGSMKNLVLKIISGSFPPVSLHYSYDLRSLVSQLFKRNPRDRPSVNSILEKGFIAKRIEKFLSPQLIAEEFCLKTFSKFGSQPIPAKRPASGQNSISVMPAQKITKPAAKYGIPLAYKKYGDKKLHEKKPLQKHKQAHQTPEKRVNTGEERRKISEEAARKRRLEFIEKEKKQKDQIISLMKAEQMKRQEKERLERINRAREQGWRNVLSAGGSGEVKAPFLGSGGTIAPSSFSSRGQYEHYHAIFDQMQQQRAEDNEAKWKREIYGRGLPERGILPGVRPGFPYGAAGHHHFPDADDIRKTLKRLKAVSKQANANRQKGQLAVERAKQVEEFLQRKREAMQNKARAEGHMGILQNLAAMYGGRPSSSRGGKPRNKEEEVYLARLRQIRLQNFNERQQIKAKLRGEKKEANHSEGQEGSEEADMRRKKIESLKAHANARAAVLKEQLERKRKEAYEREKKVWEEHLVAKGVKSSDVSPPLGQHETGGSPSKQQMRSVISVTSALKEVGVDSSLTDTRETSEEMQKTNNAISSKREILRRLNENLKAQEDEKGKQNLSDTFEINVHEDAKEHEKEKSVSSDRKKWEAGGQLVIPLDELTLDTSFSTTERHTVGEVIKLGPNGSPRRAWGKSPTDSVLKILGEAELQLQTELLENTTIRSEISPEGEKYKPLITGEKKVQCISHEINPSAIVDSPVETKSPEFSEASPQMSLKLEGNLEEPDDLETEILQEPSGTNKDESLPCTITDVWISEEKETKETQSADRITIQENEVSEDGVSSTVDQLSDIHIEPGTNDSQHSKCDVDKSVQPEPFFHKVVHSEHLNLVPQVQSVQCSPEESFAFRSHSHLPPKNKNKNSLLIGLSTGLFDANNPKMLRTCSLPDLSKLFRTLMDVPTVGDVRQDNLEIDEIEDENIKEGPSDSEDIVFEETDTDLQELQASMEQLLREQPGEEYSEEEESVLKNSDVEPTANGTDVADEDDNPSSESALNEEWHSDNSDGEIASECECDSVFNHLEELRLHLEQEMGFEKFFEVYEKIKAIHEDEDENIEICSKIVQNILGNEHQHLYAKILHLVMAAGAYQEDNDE
Briefly: co-IP.

Experiment [5] has as its target T1, NEK1 (endogenous) (human (endogenous in ARPE-19, HeLa, HEK293, U2OS)). Briefly: co-IP. The source holds these as a separate data set.
Experiment [6] has as its target T3, 3xFLAG-NEK1 aa 1160-1286 (NEK1-CID) (human) (UniProt Q96PY6).
T3 sequence: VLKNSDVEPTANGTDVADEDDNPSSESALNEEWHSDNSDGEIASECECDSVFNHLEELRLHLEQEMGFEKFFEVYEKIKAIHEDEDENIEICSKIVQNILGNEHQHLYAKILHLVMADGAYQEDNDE
Briefly: co-IP.

For experiment [7], the target named is T4, 3xFLAG-NEK1 aa 1-1160 (deletion of the CID) (human) (UniProt Q96PY6).
T4 sequence: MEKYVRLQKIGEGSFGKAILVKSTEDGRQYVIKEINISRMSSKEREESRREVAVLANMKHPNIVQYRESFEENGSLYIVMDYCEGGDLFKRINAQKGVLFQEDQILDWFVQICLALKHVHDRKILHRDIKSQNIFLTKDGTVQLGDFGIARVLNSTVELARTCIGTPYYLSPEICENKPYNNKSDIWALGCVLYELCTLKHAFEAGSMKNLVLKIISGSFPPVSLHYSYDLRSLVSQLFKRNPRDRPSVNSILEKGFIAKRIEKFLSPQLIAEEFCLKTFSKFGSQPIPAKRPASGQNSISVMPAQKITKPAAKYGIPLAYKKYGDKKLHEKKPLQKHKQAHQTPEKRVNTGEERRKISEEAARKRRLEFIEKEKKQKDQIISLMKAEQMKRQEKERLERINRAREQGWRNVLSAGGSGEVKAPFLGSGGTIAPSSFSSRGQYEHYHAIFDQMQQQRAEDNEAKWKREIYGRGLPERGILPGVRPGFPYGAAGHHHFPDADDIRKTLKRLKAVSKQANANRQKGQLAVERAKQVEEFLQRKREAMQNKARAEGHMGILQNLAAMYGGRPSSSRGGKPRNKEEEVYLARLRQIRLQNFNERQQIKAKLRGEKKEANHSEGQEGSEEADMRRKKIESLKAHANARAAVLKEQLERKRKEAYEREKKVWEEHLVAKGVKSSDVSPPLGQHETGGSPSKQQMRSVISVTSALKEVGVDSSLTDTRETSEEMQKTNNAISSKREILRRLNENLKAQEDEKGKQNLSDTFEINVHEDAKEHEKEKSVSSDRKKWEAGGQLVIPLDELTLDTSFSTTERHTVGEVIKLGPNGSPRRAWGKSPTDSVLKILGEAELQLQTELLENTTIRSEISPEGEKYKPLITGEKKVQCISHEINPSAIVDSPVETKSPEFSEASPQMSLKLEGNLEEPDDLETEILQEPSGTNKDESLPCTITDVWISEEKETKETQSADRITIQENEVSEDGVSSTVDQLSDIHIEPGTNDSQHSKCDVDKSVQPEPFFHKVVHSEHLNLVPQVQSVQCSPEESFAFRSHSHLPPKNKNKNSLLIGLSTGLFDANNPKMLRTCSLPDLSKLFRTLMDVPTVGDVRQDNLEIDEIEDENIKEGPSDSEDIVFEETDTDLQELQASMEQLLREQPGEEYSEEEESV
Briefly: co-IP.

Experiment [8] has as its target T5, 3xFLAG-NEK1 aa 760-1286 (C-terminal acidic domain) (human) (UniProt Q96PY6).
T5 sequence: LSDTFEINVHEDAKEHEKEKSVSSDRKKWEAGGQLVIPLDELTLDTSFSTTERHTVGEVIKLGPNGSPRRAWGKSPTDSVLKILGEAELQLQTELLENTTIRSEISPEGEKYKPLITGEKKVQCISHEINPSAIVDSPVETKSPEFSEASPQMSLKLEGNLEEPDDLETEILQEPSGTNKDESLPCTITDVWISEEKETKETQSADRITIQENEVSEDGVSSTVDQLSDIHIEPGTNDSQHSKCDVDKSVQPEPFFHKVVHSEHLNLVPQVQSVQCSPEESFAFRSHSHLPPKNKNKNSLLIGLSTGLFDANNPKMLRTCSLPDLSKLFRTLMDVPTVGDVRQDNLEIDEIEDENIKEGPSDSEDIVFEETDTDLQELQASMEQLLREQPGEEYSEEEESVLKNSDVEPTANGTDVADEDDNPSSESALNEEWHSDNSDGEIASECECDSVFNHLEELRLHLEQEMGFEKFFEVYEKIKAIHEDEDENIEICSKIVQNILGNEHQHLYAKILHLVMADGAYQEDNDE
Briefly: co-IP.

Experiment [9] has as its target T6, 3xFLAG-NEK1 full length (1-1286) (human) (UniProt Q96PY6).
T6 sequence: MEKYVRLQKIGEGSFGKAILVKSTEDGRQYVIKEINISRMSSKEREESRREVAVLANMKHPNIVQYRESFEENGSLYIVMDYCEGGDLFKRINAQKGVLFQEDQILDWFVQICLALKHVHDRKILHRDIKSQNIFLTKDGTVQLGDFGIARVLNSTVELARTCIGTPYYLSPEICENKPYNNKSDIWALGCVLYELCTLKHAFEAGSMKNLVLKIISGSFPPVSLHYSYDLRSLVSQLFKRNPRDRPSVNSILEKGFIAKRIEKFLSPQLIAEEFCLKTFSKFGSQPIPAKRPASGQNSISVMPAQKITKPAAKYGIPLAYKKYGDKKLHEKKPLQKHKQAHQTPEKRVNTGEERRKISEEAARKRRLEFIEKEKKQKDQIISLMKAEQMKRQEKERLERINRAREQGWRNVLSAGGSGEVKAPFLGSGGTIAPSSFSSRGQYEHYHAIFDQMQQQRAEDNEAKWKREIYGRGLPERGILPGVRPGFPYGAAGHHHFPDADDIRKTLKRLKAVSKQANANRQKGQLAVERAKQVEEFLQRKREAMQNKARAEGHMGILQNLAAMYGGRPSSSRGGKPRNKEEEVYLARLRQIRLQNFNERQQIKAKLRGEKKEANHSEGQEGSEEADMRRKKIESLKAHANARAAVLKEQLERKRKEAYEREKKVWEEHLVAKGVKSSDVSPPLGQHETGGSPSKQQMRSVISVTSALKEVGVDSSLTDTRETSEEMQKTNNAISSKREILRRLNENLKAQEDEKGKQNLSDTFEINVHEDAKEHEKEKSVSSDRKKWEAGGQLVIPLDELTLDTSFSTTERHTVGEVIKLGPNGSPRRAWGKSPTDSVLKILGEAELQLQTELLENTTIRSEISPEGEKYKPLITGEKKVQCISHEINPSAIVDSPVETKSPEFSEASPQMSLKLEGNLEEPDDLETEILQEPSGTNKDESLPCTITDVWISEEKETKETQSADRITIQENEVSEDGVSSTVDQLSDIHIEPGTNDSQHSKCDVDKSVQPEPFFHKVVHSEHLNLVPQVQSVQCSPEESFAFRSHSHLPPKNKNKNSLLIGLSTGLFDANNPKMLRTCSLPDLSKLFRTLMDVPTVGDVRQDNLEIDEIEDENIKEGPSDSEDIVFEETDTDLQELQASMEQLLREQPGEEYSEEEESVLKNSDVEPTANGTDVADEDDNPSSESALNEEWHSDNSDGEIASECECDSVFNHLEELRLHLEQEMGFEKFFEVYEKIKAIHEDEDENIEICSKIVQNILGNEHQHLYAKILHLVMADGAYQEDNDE
Briefly: co-IP.

Results are given in words; binding and its absence hold for the method and conditions named. For part of these data: In cells and extracts the contact can be indirect. Some entries that bind do so weakly or less than the wild type. For part of these data: Where a sequence is shown, tags or fusion partners need not be part of it.

B1: C21ORF2 (endogenous) (protein, UniProt O43822-1 1-256)
chain: MKLTRKMVLTRAKASELHSVRKLNCWGSRLTDISICQEMPSLEVITLSVNSISTLEPVSRCQRLSELYLRRNRIPSLAELFYLKGLPRLRVLWLAENPCCGTSPHRYRMTVLRTLPRLQKLDNQAVTEEELSRALSEGEEITAAPEREGTGHGGPKLCCTLSSLSSAAETGRDPLDSEEEATSGAQDERGLKPPSRGQFPSLSARDASSSHRGRNVLTAILLLLRELDAEGLEAVQQTVGSRLQALRGEEVQEHAE
On to B1, for which the binding entry in [1] was “binds”; in experiment [2] it was “binds”; in [3], “binds”; in experiment [4], “no binding”; in experiment [5], “binds”.

B2: GFP-C21ORF2 (protein, UniProt O43822-1 1-256)
chain: MKLTRKMVLTRAKASELHSVRKLNCWGSRLTDISICQEMPSLEVITLSVNSISTLEPVSRCQRLSELYLRRNRIPSLAELFYLKGLPRLRVLWLAENPCCGTSPHRYRMTVLRTLPRLQKLDNQAVTEEELSRALSEGEEITAAPEREGTGHGGPKLCCTLSSLSSAAETGRDPLDSEEEATSGAQDERGLKPPSRGQFPSLSARDASSSHRGRNVLTAILLLLRELDAEGLEAVQQTVGSRLQALRGEEVQEHAE
As to B2, the binding result in experiment [6] is “binds”; in experiment [7] it was “no binding”; in [8] it was “binds”; in [9], “binds”.
